# Assay results: PubChem BioAssay AID1963322 (National Center for Advancing Translational Sciences (NCATS), 2024)
# Inconclusive means that the source gave no clear call. Such entries were picked first, then a sample of the others. Potencies beside an inconclusive call are fits to weak or partial responses and may not hold up. Calls of active or inactive are those of the source. Calls come from the whole dose curve.
# Target: cAMP-dependent protein kinase catalytic subunit alpha (Homo sapiens) (UniProt P17612)
# Assay: Protein Kinase A (PKA-HiBiT) SDR gain of signal screen
# Details: PKA-HiBiT structural dynamics response (SDR), luminescence gain of signal
# Text: National Center for Advancing Translational Sciences (NCATS),
# National Institute of Health (NIH), Maryland
# Discovery and optimization of novel protein-binding ligands underlies many of the methods and applications of biology, drug discovery, clinical diagnostics, and environmental toxicology. Assays for detecting the interaction of, for example, a molecule with a macromolecular target also referred to here as the target of interest (TOI) is dependent on a compatible output technology. Depending on the nature and knowledge surrounding the TOI, whether a receptor, enzyme, regulatory subunit or scaffold, or a sequence-defined nucleic acid folded into a complex tertiary structure, assay strategies can vary widely.
# Here we exploit ligand-biased changes in the structural dynamics of the target protein to control reporter alpha complementation allowing a non-competitive, non-functional, non-separation measure of ligand-target interaction. […]
# SEQUENCE No. (e.g., 1, 2, 3, etc.); […] (e.g., C. elegans, Compounds, Incubation, Read, etc.); VALUE and DESCRIPTION. […]
# 6. […] (SDR assay) Luminescence measured using CCD-based camera (ViewLux) with settings as follows: Exposure, 1 sec; Gain, High; Speed, Slow; Binning, 2X.
row,SMILES,Potency
1,CCOc1ccn(-c2ccc(F)cc2)c(=O)c1C(=O)Nc1ccc(Oc2ccnc(N)c2Cl)c(F)c1,active: 0.813 µM
2,CN1CCN(Cc2ccc(-c3cnc4[nH]cc(-c5ccc6[nH]ccc6c5)c4c3)cc2)CC1,inconclusive: 9.15 µM [activator]
